PubChem BioAssay AID1671195 – Yale University – 2021

Purpose: 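Knockdowns that increase or decrease uptake of fluorescent LDL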 (primary screen)
Cell system: human Huh7 hepatoma cells
Reagent: siRNA pool against human genes, 18 nM
Duration: about 2 to 2.5 days of knockdown, then 8 h LDL uptake
Challenge: DiI-labelled LDL at 30 µg/ml for 8 h, in lipoprotein-deficient serum medium
Measurement: 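Per-cell DiI-LDL intensity by automated imaging; well means scaled to the plate median and given as a robust z-score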
Reading the numbers: robust z-score: higher = more LDL uptake after knockdown
Rule for the call: 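a gene counts as active if at least two replicate z-scores exceed ±2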
The deposit covers about 22,000 reagents; shown is an unselected part. Over the whole deposit, about 1,510 (6.9%) are marked active. 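Active includes knockdowns raising or lowering LDL uptake; positive z-scores mean more uptake, negative mean less.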 A number with no mark means an inactive call.

KRTAP5-4 (keratin associated protein 5-4) gave robust z-score, replicate 1 = -0.284; robust z-score, replicate 2 = -0.0897; robust z-score, replicate 3 = -0.727. Depletion of FXYD7 (FXYD domain containing ion transport regulator 7) came out at: robust z-score, replicate 1 = -1.58; robust z-score, replicate 2 = -1.93; robust z-score, replicate 3 = -1.49. With knock-down of RTN1 (reticulon 1), the screen gave robust z-score, replicate 1 = -0.619; robust z-score, replicate 2 = -0.84; robust z-score, replicate 3 = -1.21. EMC6 (ER membrane protein complex subunit 6) showed robust z-score, replicate 1 = 0.994; robust z-score, replicate 2 = 0.421; robust z-score, replicate 3 = 1.37. Knock-down of EFNA2 (ephrin A2) resulted in: robust z-score, replicate 1 = 1.22; robust z-score, replicate 2 = 1.95; robust z-score, replicate 3 = 1.73. Depletion of LINC02538 (long independently transcribed non-coding RNA 2538) came out at: robust z-score, replicate 1 = 1.4; robust z-score, replicate 2 = 0.939; robust z-score, replicate 3 = 1.1.

Silencing of ACLY (ATP citrate lyase) resulted in: robust z-score, replicate 1 = 0.514; robust z-score, replicate 2 = 0.335; robust z-score, replicate 3 = 0.473. ADNP2 (ADNP homeobox 2) scored robust z-score, replicate 1 = 0.193; robust z-score, replicate 2 = -2.19; robust z-score, replicate 3 = -0.653. With knock-down of GINS1 (GINS complex subunit 1), the record shows robust z-score, replicate 1 = 0.933; robust z-score, replicate 2 = 2.71; robust z-score, replicate 3 = 1.37. TNPO3 (transportin 3) gave robust z-score, replicate 1 = -1.07; robust z-score, replicate 2 = -0.891; robust z-score, replicate 3 = -0.633. For ECT2 (epithelial cell transforming 2) the deposit lists robust z-score, replicate 1 = -0.621; robust z-score, replicate 2 = 1.52; robust z-score, replicate 3 = 0.33. With knock-down of TRIM24 (tripartite motif containing 24), the screen gave robust z-score, replicate 1 = -1.85; robust z-score, replicate 2 = -2.22; robust z-score, replicate 3 = -1.71.

Reformatted: entries from further up
| gene knocked down | robust z-score, replicate 1 | robust z-score, replicate 2 | robust z-score, replicate 3 |
| --- | --- | --- | --- |
| TNPO3 (transportin 3) | -1.07 | -0.891 | -0.633 |
| ECT2 (epithelial cell transforming 2) | -0.621 | 1.52 | 0.33 |
